In patent US11624748B2, “Methods and compositions for the identification of epithelial to mesenchymal breast cancer” (Tuskegee University, priority 2019, dated 2023):
Some entries share one result that the patent states for a list of compounds.

Test system: EMT phenotypic cells (MCF-7/TGFβ, MDA-MB-231 and T47D-shNMI)
Test: phage capture assay
Format: cell-based, human
Settings: MDA-MB-231 and T47D-shNMI vs breast fibroblasts, MCF-7 and T47D, phage 1×10^10 pfu, RT 1 h
Text: Individual phage clones were characterized for their selectivity toward EMT cells, MCF-7/TGFβ and MDA-MB-231 breast cancer cells in comparison with epithelial breast cancer cells, MCF-7, T47D, and breast fibroblasts using phage capture assay and cell-based ELISA.
In phage capture assay, briefly, target cells MCF-7/TGFβ, MDA-MB-231, MCF-7, T47D, T47D-shNMI and breast fibroblasts were cultivated in triplicate to confluence in separate wells of 12-well cell culture plates. The medium with serum was incubated in separate wells in triplicate as a control. Cells were incubated with phage (1×10^10 pfu) at RT for 1 h. Unbound phages were carefully removed and cells were washed with 100 μl washing buffer for 5 min eight times to remove non-specifically interacting phages. Cells were lysed with […] (2.5% CHAPS) for 10 min on a rocker. The lysate containing cell-interacting phages was titered in E. coli ER2738 bacterial cells. Phage recovery was calculated as a ratio of output to input phage.

| Substance | binding to EMT phenotypic cells as compared to its binding to breast fibroblasts and epithelial breast cancer cells |
| --- | --- |
| GTFLFS [E32] | more than 10 times |
| LGLRGSL [E11] | more than 10 times |
| PNLPWVP [E45] | more than 10 times |
